This is an account of results in patent US20190256843A1 (AGILENT TECHNOLOGIES, published 2019).

Amino acid sequences for entries named in this document (tags omitted). Residues count along the entry.
UniProt P46934, residues 767-800: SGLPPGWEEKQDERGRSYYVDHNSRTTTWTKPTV
UniProt P46935, residues 405-438: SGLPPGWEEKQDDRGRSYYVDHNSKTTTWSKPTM

Results are given in words; binding and its absence hold for the method and conditions named. Some entries that bind do so weakly or less than the wild type. Where a sequence is shown, tags or fusion partners need not be part of it.

Experiment [1] concerns the target T1, N-terminal split mCherry fused to ….
T1 sequence: IPGTPPPNYD
The experiment is described as follows: BiFC split mCherry in E. coli, FACS.

Experiment [2] has the same target. The experiment is described as follows: clonal BiFC split mCherry in E. coli.

Turning to “human NEDD4 WW2 domain fused to C-terminal split mCherry with 6xHis tag (from UniProt P46934 767-800)”, the binding entry in experiment [1] is listed as “binds”.

For the substance “mouse Nedd4 WW2 fused to C-terminal split mCherry (from UniProt P46935 405-438)”, the binding entry in experiment [2] is “binds”.
